# Assay results published in the supplement of paper PMC8728848.
# Some of the results follow.
# B1: BT4246 (Bacteroides thetaiotaomicron), Q89ZX5 (protein)
# chain: MGSSHHHHHHENLYFQGHMASDYLDVVPPEQPNIDDAMSSPTRALGFLYSCYGGVSTDLPSAYLGEINSTTDEYVLPYSWNTDGYWGAYAFNTASSTNQDWLWGTTYQYIGQCYLFLQKLENAGSDIASDAEKEQWRAECQFLVAYYHFATLRRYGPIPITDSYIPMDTPTSEYNGRFHFDYCVDWIANQLDEAAKVLPANRTVTNEWGRATSTIAKAVKARLLLYAASPLWNGSFPYPNWQNENFETPGYGKALVSNTYDKSKWERALAACQEALTLATTSGDRELYDDDEYYSRQSLNLPFVPGVADVEDNKEFLKNVMKMRYAVSTRESEGNKEIIWGLSNQFDFYSRYPLRILKKSDGTWHAGYSGVSPTLYTFEHFYTANGKLPEKDLDFTPSSEWFESAGISSREDIIKLNVGREPRFYAWMAFDGGDYGTKFAAGSPLKLEMRNSEMHGYNPSLFNRDHSVTGFLTQKFVDPVTEFYTAGGSTSGTSAPTILFRLAELYLNVAECHAALGNTQEAIDALNPVRERAGIPKLTLADITNNMTIKDWVHNERFVELWNEGHRFFDVRRWAEGAKYFGANKREGLNAEVQSPTFEEFNKRTTVDAPYVWENRMYLNPVFYNEVYKNPQMVQAPGY
# Legend:
# Assay in all cases: glycan array binding signal (z-score within array); higher = stronger binding
# Details in all cases: glycan notation: IUPAC condensed, linker removed
# [1] = biological target: Fuc(a1-2)[Gal(a1-3)]Gal(b1-4)GlcNAc(b1-2)Man(a1-3)[Fuc(a1-2)[Gal(a1-3)]Gal(b1-4)GlcNAc(b1-2)Man(a1-6)]Man(b1-4)GlcNAc(b1-4)GlcNAc
# Method in brief: (§1)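 From the Consortium for Functional Glycomics database, 3228 arrays were curated, keeping only those whose protein sequence was available. Binding is given as a within-array Z-score averaged across arrays sharing a protein sequence and across linkers. Negative Z-scores can be read as non-binding.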
# [2] = biological target: Fuc(a1-2)[Gal(a1-3)]Gal(b1-4)GlcNAc(b1-2)Man(a1-3)[Fuc(a1-2)[Gal(a1-3)]Gal(b1-4)GlcNAc(b1-2)Man(a1-6)]Man(b1-4)GlcNAc(b1-4)[Fuc(a1-6)]GlcNAc
# Method in brief: as §1
# [3] = biological target: Fuc(a1-2)[Gal(a1-3)]Gal(b1-4)GlcNAc(b1-3)GalNAc
# Method in brief: as §1
# [4] = biological target: Fuc(a1-2)[Gal(a1-3)]Gal(b1-4)GlcNAc(b1-3)[Fuc(a1-2)[Gal(a1-3)]Gal(b1-4)GlcNAc(b1-6)]GalNAc
# Method in brief: as §1
# [5] = biological target: Fuc(a1-2)[Gal(a1-3)]Gal(b1-4)GlcNAc(b1-6)GalNAc
# Method in brief: as §1
# [6] = biological target: Fuc(a1-2)[Gal(a1-3)]Gal(b1-4)[Fuc(a1-3)]Glc
# Method in brief: as §1
# [7] = biological target: Fuc(a1-2)[Gal(a1-3)]Gal(b1-4)[Fuc(a1-3)]GlcNAc
# Method in brief: as §1
# [8] = biological target: Fuc(a1-2)[Gal(a1-3)]Gal(b1-4)[Fuc(a1-3)]GlcNAc(b1-3)GalNAc
# Method in brief: as §1
# [9] = biological target: Fuc(a1-2)[Gal(a1-4)]Gal(b1-4)GlcNAc
# Method in brief: as §1
# [10] = biological target: Fuc(a1-2)[GalNAc(a1-3)]Gal
# Method in brief: as §1
# [11] = biological target: Fuc(a1-2)[GalNAc(a1-3)]Gal(b1-3)GalNAc(a1-3)[Fuc(a1-2)]Gal(b1-4)GlcNAc
# Method in brief: as §1
# [12] = biological target: Fuc(a1-2)[GalNAc(a1-3)]Gal(b1-3)GalNAc(b1-3)Gal(a1-4)Gal(b1-4)Glc
# Method in brief: as §1
# [13] = biological target: Fuc(a1-2)[GalNAc(a1-3)]Gal(b1-3)GlcNAc
# Method in brief: as §1
# [14] = biological target: Fuc(a1-2)[GalNAc(a1-3)]Gal(b1-3)GlcNAc(b1-2)Man(a1-3)[Fuc(a1-2)[GalNAc(a1-3)]Gal(b1-3)GlcNAc(b1-2)Man(a1-6)]Man(b1-4)GlcNAc(b1-4)GlcNAc
# Method in brief: as §1
# [15] = biological target: Fuc(a1-2)[GalNAc(a1-3)]Gal(b1-3)GlcNAc(b1-2)Man(a1-3)[Fuc(a1-2)[GalNAc(a1-3)]Gal(b1-3)GlcNAc(b1-2)Man(a1-6)]Man(b1-4)GlcNAc(b1-4)[Fuc(a1-6)]GlcNAc
# Method in brief: as §1
# [16] = biological target: Fuc(a1-2)[GalNAc(a1-3)]Gal(b1-3)GlcNAc(b1-3)GalNAc
# Method in brief: as §1
# [17] = biological target: Fuc(a1-2)[GalNAc(a1-3)]Gal(b1-3)GlcNAc(b1-6)GalNAc
# Method in brief: as §1
# [18] = biological target: Fuc(a1-2)[GalNAc(a1-3)]Gal(b1-4)Glc
# Method in brief: as §1
# [19] = biological target: Fuc(a1-2)[GalNAc(a1-3)]Gal(b1-4)GlcNAc
# Method in brief: as §1
# [20] = biological target: Fuc(a1-2)[GalNAc(a1-3)]Gal(b1-4)GlcNAc(b1-2)Man
# Method in brief: as §1
# [21] = biological target: Fuc(a1-2)[GalNAc(a1-3)]Gal(b1-4)GlcNAc(b1-2)Man(a1-3)[Fuc(a1-2)[GalNAc(a1-3)]Gal(b1-4)GlcNAc(b1-2)Man(a1-6)]Man(b1-4)GlcNAc(b1-4)GlcNAc
# Method in brief: as §1
# [22] = biological target: Fuc(a1-2)[GalNAc(a1-3)]Gal(b1-4)GlcNAc(b1-2)Man(a1-3)[Fuc(a1-2)[GalNAc(a1-3)]Gal(b1-4)GlcNAc(b1-2)Man(a1-6)]Man(b1-4)GlcNAc(b1-4)[Fuc(a1-6)]GlcNAc
# Method in brief: as §1
# [23] = biological target: Fuc(a1-2)[GalNAc(a1-3)]Gal(b1-4)GlcNAc(b1-3)Gal(b1-4)GlcNAc
# Method in brief: as §1
# [24] = biological target: Fuc(a1-2)[GalNAc(a1-3)]Gal(b1-4)GlcNAc(b1-3)Gal(b1-4)GlcNAc(b1-3)Gal(b1-4)GlcNAc
# Method in brief: as §1
# [25] = biological target: Fuc(a1-2)[GalNAc(a1-3)]Gal(b1-4)GlcNAc(b1-3)GalNAc
# Method in brief: as §1
# [26] = biological target: Fuc(a1-2)[GalNAc(a1-3)]Gal(b1-4)GlcNAc(b1-3)[Fuc(a1-2)[GalNAc(a1-3)]Gal(b1-4)GlcNAc(b1-6)]GalNAc
# Method in brief: as §1
# [27] = biological target: Fuc(a1-2)[GalNAc(a1-3)]Gal(b1-4)GlcNAc(b1-6)GalNAc
# Method in brief: as §1
# [28] = biological target: Fuc(a1-2)[GalNAc(a1-3)]Gal(b1-4)[Fuc(a1-3)]GlcNAc
# Method in brief: as §1
# [29] = biological target: Fuc(a1-2)[GalNAc(a1-3)]Gal(b1-4)[Fuc(a1-3)]GlcNAc(b1-3)GalNAc
# Method in brief: as §1
# [30] = biological target: Fuc(a1-2)[GalNAc(a1-4)]Gal(b1-4)GlcNAc
# Method in brief: as §1
binder,measurement,setting,value
B1,glycan array binding signal (z-score),[1],2.43
same,glycan array binding signal (z-score),[2],-1.11
same,glycan array binding signal (z-score),[3],1.88
same,glycan array binding signal (z-score),[4],-0.949
same,glycan array binding signal (z-score),[5],0.41
same,glycan array binding signal (z-score),[6],-0.611
same,glycan array binding signal (z-score),[7],1.18
same,glycan array binding signal (z-score),[8],-0.469
same,glycan array binding signal (z-score),[9],-0.605
same,glycan array binding signal (z-score),[10],-1.02
same,glycan array binding signal (z-score),[11],-0.798
same,glycan array binding signal (z-score),[12],-1.28
same,glycan array binding signal (z-score),[13],0.796
same,glycan array binding signal (z-score),[14],-0.214
same,glycan array binding signal (z-score),[15],-0.772
same,glycan array binding signal (z-score),[16],0.196
same,glycan array binding signal (z-score),[17],-1.32
same,glycan array binding signal (z-score),[18],0.594
same,glycan array binding signal (z-score),[19],-0.759
same,glycan array binding signal (z-score),[20],-0.729
same,glycan array binding signal (z-score),[21],0.541
same,glycan array binding signal (z-score),[22],-0.126
same,glycan array binding signal (z-score),[23],2.16
same,glycan array binding signal (z-score),[24],0.74
same,glycan array binding signal (z-score),[25],-0.018
same,glycan array binding signal (z-score),[26],0.94
same,glycan array binding signal (z-score),[27],-0.679
same,glycan array binding signal (z-score),[28],-2.1
same,glycan array binding signal (z-score),[29],-0.568
same,glycan array binding signal (z-score),[30],0.527

# A different layout for some results above:
binder	measurement	setting	value
B1	glycan array binding signal (z-score)	[11]	-0.798
same	glycan array binding signal (z-score)	[12]	-1.28
